PubChem BioAssay AID1159597 | NIAID – 2016

Test: 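Which TLR pathway components are needed for LPS-driven TNF promoter activity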
Cell system: human THP-1 B5 reporter clone (monocytic leukaemia line), PMA-differentiated to macrophage-like cells
Reagents: single siRNA against human genes
Duration: LPS for 4 h before read-out; assayed 48 to 72 h after siRNA transfection
Challenge: LPS (Salmonella minnesota R595) for 4 h; concentration not given
Detection: 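After 4 h LPS, firefly TNF promoter luciferase over renilla, as a plate median/MAD robust z-score averaged across replicates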
Reading the numbers: TNF reporter z-score: higher = stronger TNF promoter activity after LPS
Call rule: In these data the active calls have TNF reporter z-score, replicate mean at about -1.5 or lower, or at about 1.53 or higher
Meaning of the calls: active = clear shift in reporter, either direction; inactive = little shift in reporter
The deposit covers 756 reagents; this is an unselected part. 140 of them (19%) count as active. 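Calls mark clear shifts in either direction, lowered or raised; calls are per siRNA, gene-level medians over six siRNAs not deposited.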 A number with no mark means an inactive call. Not given: the amount of reagent.

target | PubChem SID | TNF reporter z-score, replicate mean
LBP (GeneID 3929) | SID303070492 | -0.499
LBP (GeneID 3929) | SID303070493 | -0.516
LBP (GeneID 3929) | SID303070494 | 0.152
LBP (GeneID 3929) | SID303070495 | -0.16
LBP (GeneID 3929) | SID303070496 | 0.511
LBP (GeneID 3929) | SID303070497 | -2.32 (active)
PIK3CB (GeneID 5291) | SID303070894 | -0.753
PIK3CB (GeneID 5291) | SID303070895 | -0.262
PIK3CB (GeneID 5291) | SID303070896 | -1.04
PIK3CB (GeneID 5291) | SID303070897 | 0.463
PIK3CB (GeneID 5291) | SID303070898 | 0.834
PIK3CB (GeneID 5291) | SID303070899 | 0.0938
ELK1 (GeneID 2002) | SID303070984 | -2.44 (active)
ELK1 (GeneID 2002) | SID303070985 | -1.96 (active)
ELK1 (GeneID 2002) | SID303070986 | -1.3
ELK1 (GeneID 2002) | SID303070987 | -0.419
ELK1 (GeneID 2002) | SID303070988 | 0.192
ELK1 (GeneID 2002) | SID303070989 | -0.337
TLR4 (GeneID 7099) | SID303070456 | -4.47 (active)
TLR4 (GeneID 7099) | SID303070457 | -5.76 (active)
TLR4 (GeneID 7099) | SID303070458 | -4.76 (active)
TLR4 (GeneID 7099) | SID303070459 | -4.5 (active)
TLR4 (GeneID 7099) | SID303070460 | -1.2
TLR4 (GeneID 7099) | SID303070461 | -3.41 (active)
DAB2IP (GeneID 153090) | SID303071170 | -1.03
DAB2IP (GeneID 153090) | SID303071171 | 0.131
DAB2IP (GeneID 153090) | SID303071172 | 1.34
DAB2IP (GeneID 153090) | SID303071173 | -2.49 (active)
DAB2IP (GeneID 153090) | SID303071174 | -0.463
DAB2IP (GeneID 153090) | SID303071175 | -2.63 (active)
LY96 (GeneID 23643) | SID303070498 | -0.0226
LY96 (GeneID 23643) | SID303070499 | -1.25
LY96 (GeneID 23643) | SID303070500 | -1.44
LY96 (GeneID 23643) | SID303070501 | -1.53 (active)
LY96 (GeneID 23643) | SID303070502 | -0.253
LY96 (GeneID 23643) | SID303070503 | -1.84 (active)
PIK3CG (GeneID 5294) | SID303070906 | -2.3 (active)
PIK3CG (GeneID 5294) | SID303070907 | -0.447
PIK3CG (GeneID 5294) | SID303070908 | -0.156
PIK3CG (GeneID 5294) | SID303070909 | -0.368
PIK3CG (GeneID 5294) | SID303070910 | -0.454
PIK3CG (GeneID 5294) | SID303070911 | -1.18
MAP2K7 (GeneID 5609) | SID303070750 | -1.3
MAP2K7 (GeneID 5609) | SID303070751 | -1.89 (active)
MAP2K7 (GeneID 5609) | SID303070752 | -0.751
MAP2K7 (GeneID 5609) | SID303070753 | -0.957
MAP2K7 (GeneID 5609) | SID303070754 | -2.44 (active)
MAP2K7 (GeneID 5609) | SID303070755 | -0.427
ELF4 (GeneID 2000) | SID303071044 | -2.27 (active)
ELF4 (GeneID 2000) | SID303071045 | -3.4 (active)
ELF4 (GeneID 2000) | SID303071046 | -0.965
ELF4 (GeneID 2000) | SID303071047 | 0.703
ELF4 (GeneID 2000) | SID303071048 | -1.29
ELF4 (GeneID 2000) | SID303071049 | -1.72 (active)
MAP2K6 (GeneID 5608) | SID303070720 | -0.0597
MAP2K6 (GeneID 5608) | SID303070721 | 0.261
MAP2K6 (GeneID 5608) | SID303070722 | -0.626
MAP2K6 (GeneID 5608) | SID303070723 | -0.144
MAP2K6 (GeneID 5608) | SID303070724 | 0.0915
MAP2K6 (GeneID 5608) | SID303070725 | 0.0901
STAT1 (GeneID 6772) | SID303070954 | -0.507
STAT1 (GeneID 6772) | SID303070955 | -0.57
STAT1 (GeneID 6772) | SID303070956 | 0.469
STAT1 (GeneID 6772) | SID303070957 | -0.319
STAT1 (GeneID 6772) | SID303070958 | 0.846
STAT1 (GeneID 6772) | SID303070959 | -2.66 (active)
TLR7 (GeneID 51284) | SID303070474 | -0.296
TLR7 (GeneID 51284) | SID303070475 | -0.322
TLR7 (GeneID 51284) | SID303070476 | -0.244
TLR7 (GeneID 51284) | SID303070477 | -0.427
TLR7 (GeneID 51284) | SID303070478 | -0.314
TLR7 (GeneID 51284) | SID303070479 | 0.52
IL6 (GeneID 3569) | SID303071086 | 0.574
IL6 (GeneID 3569) | SID303071087 | -1.05
IL6 (GeneID 3569) | SID303071088 | -0.16
IL6 (GeneID 3569) | SID303071089 | -0.756
IL6 (GeneID 3569) | SID303071090 | -0.458
IL6 (GeneID 3569) | SID303071091 | 0.233
IRAK2 (GeneID 3656) | SID303070546 | -0.418
IRAK2 (GeneID 3656) | SID303070547 | 1.97 (active)
IRAK2 (GeneID 3656) | SID303070548 | -0.0728
IRAK2 (GeneID 3656) | SID303070549 | 0.265
IRAK2 (GeneID 3656) | SID303070550 | -0.206
IRAK2 (GeneID 3656) | SID303070551 | 1.34
CD14 (GeneID 929) | SID303070504 | -0.223
CD14 (GeneID 929) | SID303070505 | -1.72 (active)
CD14 (GeneID 929) | SID303070506 | -0.131
CD14 (GeneID 929) | SID303070507 | -0.677
CD14 (GeneID 929) | SID303070508 | 0.872
CD14 (GeneID 929) | SID303070509 | -3.29 (active)
MAPKAPK2 (GeneID 9261) | SID303070738 | -0.367
MAPKAPK2 (GeneID 9261) | SID303070739 | -0.33
MAPKAPK2 (GeneID 9261) | SID303070740 | -0.706
MAPKAPK2 (GeneID 9261) | SID303070741 | -1.13
MAPKAPK2 (GeneID 9261) | SID303070742 | 0.488
MAPKAPK2 (GeneID 9261) | SID303070743 | -0.529
MAPK8 (GeneID 5599) | SID303070756 | -0.249
MAPK8 (GeneID 5599) | SID303070757 | -1.1
MAPK8 (GeneID 5599) | SID303070758 | 0.674
MAPK8 (GeneID 5599) | SID303070759 | -0.151
MAPK8 (GeneID 5599) | SID303070760 | -1.19
MAPK8 (GeneID 5599) | SID303070761 | 0.43
EGR1 (GeneID 1958) | SID303071002 | -1.62 (active)
EGR1 (GeneID 1958) | SID303071003 | -2.62 (active)
EGR1 (GeneID 1958) | SID303071004 | -3.13 (active)
EGR1 (GeneID 1958) | SID303071005 | -0.743
EGR1 (GeneID 1958) | SID303071006 | 0.538
EGR1 (GeneID 1958) | SID303071007 | -0.674
IKBKG (GeneID 8517) | SID303070612 | -1.91 (active)
IKBKG (GeneID 8517) | SID303070613 | -2.95 (active)
IKBKG (GeneID 8517) | SID303070614 | 0.14
IKBKG (GeneID 8517) | SID303070615 | -0.832
IKBKG (GeneID 8517) | SID303070616 | 0.517
IKBKG (GeneID 8517) | SID303070617 | -0.28

Single entries from above:
Under “TNF reporter z-score, replicate mean”, MAPK8 (GeneID 5599) [SID303070758] has 0.674
Value for ELK1 (GeneID 2002) [SID303070985] under “TNF reporter z-score, replicate mean”: -1.96 (active)
STAT1 (GeneID 6772) [SID303070955], TNF reporter z-score, replicate mean → -0.57
Under “TNF reporter z-score, replicate mean”, PIK3CB (GeneID 5291) [SID303070894] is entered as -0.753
ELF4 (GeneID 2000) [SID303071045], TNF reporter z-score, replicate mean → -3.4 (active)
MAPKAPK2 (GeneID 9261) [SID303070739], TNF reporter z-score, replicate mean = -0.33
